Measurements: patent publication US8916605B2, “Compounds and methods for treating cancer and viral infections” (priority 2009, dated 2014)
Some of these results come from one statement about several compounds together.

System: lymphoma-derived cells (THP-1, U937, SupT1)
Assay: MTT (CIMA) cell proliferation assay, broader spectrum of cancer cell types (Example 5)
Format: cell-based, human
Settings: over a range of concentrations

SMILES | change in MTT activity
O=CCCCN1C(=O)c2ccccc2C1=O [Compound I(a), 4-(1,3-dioxo-1,3-dihydro-2H-isoindol-2-yl)butanal] | 20-30%
CC(C)(C)OC(=O)N1CCCC1O (centres unmarked) [I(b), tert-butyl 2-hydroxypyrrolidine-1-carboxylate] | 20-30%
